# Measurements from publication PMC6751061.
# Biological target: T1, LexA (Bacillus subtilis 3610) (UniProt P31080)
# T1 sequence (looked up, limits assumed): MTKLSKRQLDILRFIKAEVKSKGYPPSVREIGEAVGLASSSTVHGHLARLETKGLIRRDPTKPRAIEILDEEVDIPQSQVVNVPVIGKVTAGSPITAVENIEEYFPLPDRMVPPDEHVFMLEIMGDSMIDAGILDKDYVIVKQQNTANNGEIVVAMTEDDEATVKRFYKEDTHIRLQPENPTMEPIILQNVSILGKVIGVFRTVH
# Experiment: EMSA
# Conditions: 4 nM probe, poly(dI-dC), EMSA: 4 nM 32P probe, LexA 1-500 nM, 100 mM Tris-HCl, 50% glycerol, 500 mM NaCl, 10 mM EDTA, 10 mM DTT, recombinant protein, label: 5'-32P, probe letters rebuilt from the primers and the genome
Sequence,binding result (shift at LexA as low as 1 nM),binding signal (fold lower affinity) (relative to PsigNUP)
AGGAGGAATTCTACCTCCTTTTCTTTTGCTAAATGATGGGGTATCATTTATTAAGTTAAAGATATACATAAAATGAATATTTTATGTTAAATAAGGTCATTTGAGCCTTACATGTCTATATGTTCATATATCCGTTCTTATTCGCTAAAAAATAGGAACAAATGTTCCCTCAATCACCGTATTATGATATTATATTAACGTGTCGGTCAACATAATAAAGGTCATATCAACAAAACAAACTAAACTTTCATAATCCTTCGACTATGGGGAATAATCAAAAAAAGAGGTGTACGATCTAGTACTTATGGATCCCTCCT (double strand) [PsigNUP],binds,
AGGAGGAATTCTACCTCCTTTTCTTTTGCTAAATGATGGGGTATCATTTATTAAGTTAAAGATATACATAAAATGAATATTTTATGTTAAATAAGGTCATTTGAGCCTTACATGTCTATATGTTCATATATCCGTTCTTATTCGCTAAAAAATATTTTACAGTGTTCCCTCAATCACCGTATTATGATATTATATTAACGTGTCGGTCAACATAATAAAGGTCATATCAACAAAACAAACTAAACTTTCATAATCCTTCGACTATGGGGAATAATCAAAAAAAGAGGTGTACGATCTAGTACTTATGGATCCCTCCT (double strand) [PsigNUP*],,100

# The exact form of at least one protein or probe is not confirmed. Protein sequences can lack the tags named with them. Whether high values mean tight binding is not given here for every scale.
